Measured values taken from publication PMC6355928.
Numbering of substitutions follows the chain as printed. Numbers in names are those of the source. No constants are given. Whether binding was seen depends on the method and setting. In cells and extracts the contact can be indirect. Some entries that bind do so weakly or less than the wild type. For some assays here: Where a sequence is shown, tags or fusion partners need not be part of it. Blank lines part the entries; values can stand above or below the molecule they belong to.

Sequences of proteins named here, by UniProt entry; tags and fusion partners are left off.
UniProt Q921J2: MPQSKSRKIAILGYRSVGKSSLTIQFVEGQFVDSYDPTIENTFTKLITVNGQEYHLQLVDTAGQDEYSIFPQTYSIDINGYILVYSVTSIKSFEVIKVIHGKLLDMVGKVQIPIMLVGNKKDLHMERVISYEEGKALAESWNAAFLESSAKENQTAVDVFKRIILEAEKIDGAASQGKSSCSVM
UniProt Q61037: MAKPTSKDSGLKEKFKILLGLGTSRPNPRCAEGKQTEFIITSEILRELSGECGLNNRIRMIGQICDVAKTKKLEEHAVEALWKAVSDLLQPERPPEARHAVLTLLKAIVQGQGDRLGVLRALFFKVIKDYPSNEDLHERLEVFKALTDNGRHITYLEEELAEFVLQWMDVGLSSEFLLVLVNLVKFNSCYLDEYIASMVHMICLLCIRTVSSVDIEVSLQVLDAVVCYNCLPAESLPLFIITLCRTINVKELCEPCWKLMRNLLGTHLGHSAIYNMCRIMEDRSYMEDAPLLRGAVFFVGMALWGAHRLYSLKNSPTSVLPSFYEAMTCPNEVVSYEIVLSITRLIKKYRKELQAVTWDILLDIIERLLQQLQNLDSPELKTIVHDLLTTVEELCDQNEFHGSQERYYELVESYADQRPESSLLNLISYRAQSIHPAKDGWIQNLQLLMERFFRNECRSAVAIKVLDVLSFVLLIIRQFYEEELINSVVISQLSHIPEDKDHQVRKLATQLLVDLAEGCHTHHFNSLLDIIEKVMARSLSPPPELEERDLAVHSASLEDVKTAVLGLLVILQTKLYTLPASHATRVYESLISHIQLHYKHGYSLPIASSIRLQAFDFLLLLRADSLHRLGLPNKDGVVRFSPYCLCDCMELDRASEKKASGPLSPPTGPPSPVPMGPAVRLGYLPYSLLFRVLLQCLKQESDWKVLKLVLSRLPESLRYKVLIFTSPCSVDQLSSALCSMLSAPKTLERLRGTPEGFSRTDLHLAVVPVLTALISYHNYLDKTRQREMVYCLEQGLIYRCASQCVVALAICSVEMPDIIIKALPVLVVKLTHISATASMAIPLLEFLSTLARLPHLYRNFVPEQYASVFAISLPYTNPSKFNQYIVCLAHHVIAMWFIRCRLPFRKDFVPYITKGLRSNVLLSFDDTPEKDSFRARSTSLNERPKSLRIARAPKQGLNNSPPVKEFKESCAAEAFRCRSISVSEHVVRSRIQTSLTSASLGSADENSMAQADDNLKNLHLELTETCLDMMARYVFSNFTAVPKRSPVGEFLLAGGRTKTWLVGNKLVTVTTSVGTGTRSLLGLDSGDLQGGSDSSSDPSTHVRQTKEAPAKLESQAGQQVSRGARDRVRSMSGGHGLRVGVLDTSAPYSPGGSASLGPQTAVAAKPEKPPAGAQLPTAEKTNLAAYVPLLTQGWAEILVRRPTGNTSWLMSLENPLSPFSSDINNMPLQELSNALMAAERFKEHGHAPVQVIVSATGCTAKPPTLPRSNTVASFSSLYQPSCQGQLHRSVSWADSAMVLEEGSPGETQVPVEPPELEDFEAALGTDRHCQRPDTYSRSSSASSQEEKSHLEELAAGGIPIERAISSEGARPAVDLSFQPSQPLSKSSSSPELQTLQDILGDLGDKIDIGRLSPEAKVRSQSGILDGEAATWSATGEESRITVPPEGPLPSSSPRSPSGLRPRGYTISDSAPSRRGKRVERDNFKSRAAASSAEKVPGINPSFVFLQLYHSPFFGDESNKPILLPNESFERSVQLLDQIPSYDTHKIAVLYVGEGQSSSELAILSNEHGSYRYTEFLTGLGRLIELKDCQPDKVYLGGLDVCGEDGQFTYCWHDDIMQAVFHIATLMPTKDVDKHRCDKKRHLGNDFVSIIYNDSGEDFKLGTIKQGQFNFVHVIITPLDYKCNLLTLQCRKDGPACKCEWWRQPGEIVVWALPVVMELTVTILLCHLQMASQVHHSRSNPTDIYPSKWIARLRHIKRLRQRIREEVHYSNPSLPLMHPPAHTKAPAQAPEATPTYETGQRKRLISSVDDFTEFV

Legend:
RNF152 (exogenous) = target: T1, RNF152 (exogenous) (UniProt Q8N8N0); assay: co-IP; transfected HEK293T cells, CHAPS lysis buffer, HA-conjugated beads or M2 beads 2-3 h; with or without EGF, co-expressed TSC2, TSC2-3Q, RNF152, RNF152-CS, USP4, USP4-CS, USP4 deficiency
T1 sequence: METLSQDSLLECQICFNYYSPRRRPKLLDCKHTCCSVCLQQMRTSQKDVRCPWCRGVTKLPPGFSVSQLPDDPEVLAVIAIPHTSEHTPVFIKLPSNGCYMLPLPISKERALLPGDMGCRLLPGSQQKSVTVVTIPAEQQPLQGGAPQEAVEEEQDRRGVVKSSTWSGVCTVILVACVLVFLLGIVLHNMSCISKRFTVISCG

[1] = target: T2, RNF152 (endogenous) (human (endogenous in HEK293T)) (UniProt Q8N8N0); assay: co-IP; endogenous proteins; CHAPS lysis buffer (40 mM HEPES pH 7.4, 120 mM NaCl, 1 mM EDTA, 0.3% CHAPS); cells with or without EGF, RNF152 or USP4 knock-down or knock-out, Vialinin A
T2 sequence: T1 sequence

[2] = target: Rheb in MEF cells (mouse (endogenous in MEF)) (UniProt Q921J2); assay: co-IP; RNF152 knockout and control MEF cells (Fig. 4e)
GST-USP4 = target: T3, GST-USP4 (UniProt Q13107); assay: pull-down; in vitro GST pull down assay of USP4 and Rheb (Fig. 3b)
T3 sequence: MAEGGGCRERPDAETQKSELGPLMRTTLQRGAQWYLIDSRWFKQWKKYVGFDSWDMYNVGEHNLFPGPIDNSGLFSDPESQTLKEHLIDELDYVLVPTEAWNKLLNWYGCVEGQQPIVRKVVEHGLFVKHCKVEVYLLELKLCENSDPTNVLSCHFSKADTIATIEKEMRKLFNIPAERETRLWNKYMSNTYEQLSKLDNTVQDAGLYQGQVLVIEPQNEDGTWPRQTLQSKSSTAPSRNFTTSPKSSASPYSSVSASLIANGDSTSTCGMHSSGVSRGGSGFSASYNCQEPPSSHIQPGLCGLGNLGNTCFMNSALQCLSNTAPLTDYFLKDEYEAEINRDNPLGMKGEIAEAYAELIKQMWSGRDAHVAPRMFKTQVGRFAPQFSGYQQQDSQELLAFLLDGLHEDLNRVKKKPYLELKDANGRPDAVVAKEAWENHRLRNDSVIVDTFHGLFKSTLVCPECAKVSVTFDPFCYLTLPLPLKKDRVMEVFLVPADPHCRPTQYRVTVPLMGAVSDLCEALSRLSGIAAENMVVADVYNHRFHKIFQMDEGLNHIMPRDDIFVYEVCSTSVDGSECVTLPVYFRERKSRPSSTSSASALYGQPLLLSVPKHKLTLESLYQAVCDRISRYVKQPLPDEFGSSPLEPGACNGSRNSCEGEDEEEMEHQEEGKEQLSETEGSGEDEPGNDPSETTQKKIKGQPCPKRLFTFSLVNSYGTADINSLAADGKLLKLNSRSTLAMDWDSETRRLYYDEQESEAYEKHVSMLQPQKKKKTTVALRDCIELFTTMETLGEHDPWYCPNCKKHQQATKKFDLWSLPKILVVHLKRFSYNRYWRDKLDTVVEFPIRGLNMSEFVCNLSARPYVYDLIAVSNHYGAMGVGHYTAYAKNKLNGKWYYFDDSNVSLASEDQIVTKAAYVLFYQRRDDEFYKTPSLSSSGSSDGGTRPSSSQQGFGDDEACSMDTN

[3] = target: Rheb (endogenous) (human (endogenous in HEK293T)) (UniProt Q15382); assay: co-IP; endogenous proteins; CHAPS lysis buffer (40 mM HEPES pH 7.4, 120 mM NaCl, 1 mM EDTA, 0.3% CHAPS); cells with or without EGF, RNF152 or USP4 knock-down or knock-out, Vialinin A
Rheb-WT (exogenous) = Rheb-WT (exogenous) (UniProt Q15382); assay: co-IP; transfected HEK293T cells, CHAPS lysis buffer, HA-conjugated beads or M2 beads 2-3 h; with or without EGF, co-expressed TSC2, TSC2-3Q, RNF152, RNF152-CS, USP4, USP4-CS, USP4 deficiency

Molecule: Rheb-WT (exogenous) (from UniProt Q15382 1-184)
binding (RNF152 (exogenous)): binds

Molecule: Rheb (endogenous) (from UniProt Q15382 1-184)
binding [1]: binds

Molecule: His-Rheb (from UniProt Q15382 1-184)
binding (GST-USP4): binds

B1: USP4 (endogenous) (enzyme, UniProt Q13107 1-963)
chain: T3 sequence
binding [3]: binds

B3: USP4-WT (exogenous) (enzyme, UniProt Q13107 1-963)
chain: T3 sequence
binding (Rheb-WT (exogenous)): binds

Next, values leading:

binding [2]: binds
Molecule: TSC2 in MEF cells (from UniProt Q61037 1-1814)

binding (Rheb-WT (exogenous)): binds
B2: USP4-S445D (enzyme, UniProt Q13107 1-963)
chain: T3 sequence with S445D

binding (Rheb-WT (exogenous)): binds weakly
B4: USP4-S445A (enzyme, UniProt Q13107 1-963)
chain: T3 sequence with S445A
